The other results are listed elsewhere or left out. Shown are side measurements of this screen, not its main read-out; they come without a call. Compounds called inactive in the main read-out are mostly missing here. Potencies come from curve fits of mixed quality, noted in brackets.
Experiment: qHTS Assay for Modulators of Lamin A Splicing
Conditions: HeLa LMNA splicing GFP/RFP minigene ratio, 48 h
Outline: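 Read-out is the ratio of GFP to DsRed2 object intensity, acquired by 488 nm laser-scanning cytometry on HeLa lamin A-EGFP minigene reporter cells. Compound incubation 48 hrs at 37 °C in Opti-MEM with 2% FBS; DMSO 0.5% final.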

[1] = measured here: GFP splicing reporter channel
[2] = measured here: RFP viability control channel

Row | SMILES | AC50 [1] | AC50 [2]
1 | C=CCn1c(COc2ccccc2)nnc1SCc1ccc(C#N)cc1 | 22.4 µM [rising, single point] | 25.1 µM [rising, single point]
2 | COC(=O)c1ccc(CSC(=N)N)o1 | 35.5 µM [falling, single point] | –
3 | Cc1cc2[nH]c(=O)c(=O)[nH]c2cc1S(=O)(=O)N1CCN(c2cccc(Cl)c2)CC1 | 35.5 µM [rising, partial curve, poor fit] | –
4 | Cc1ccc(S(=O)(=O)Oc2ccc(C)cc2/C=N/N=C2\NC(=O)C(C)S2)cc1 (stereo not drawn) | – | 31.6 µM [rising, single point]
5 | CCCCN(CC)CCNC(=O)CCC(=O)Nc1ccc2nc(N3CCN(C)CC3)cc(C)c2c1 | 2.51 µM [falling, full curve] | 1.26 µM [falling, full curve, poor fit]
6 | Clc1ccc(OCc2nc(-c3ccncc3)no2)c(Br)c1 | – | 12.6 µM [rising, partial curve, poor fit]
7 | O=c1cc(O)nc(SCc2ccc(Cl)cc2)[nH]1 | 3.98 µM [rising, single point] | –
8 | COc1cc(NS(=O)(=O)c2ccc(Br)s2)cc(OC)c1 | 12.6 µM [rising, single point] | 22.4 µM [rising, single point]
9 | CNc1nc(N)c([N+](=O)[O-])c(Nc2cccc(Cl)c2)n1 | 0.00447 µM [rising, full curve, poor fit] | –
10 | COc1ccc(NC(=O)CN2CCN(C3c4ccccc4-c4ccccc43)CC2)cc1 | 15.8 µM [rising, single point] | –
11 | Cc1nc(NC(=O)COC(=O)c2cc3c(s2)CCC(C)C3)c(Cl)cc1Cl (stereo not drawn) | 35.5 µM [falling, partial curve] | –
12 | CCN(CC)CCn1c2ccccc2c2cnc(N)c(C#N)c21 | – | 8.91 µM [rising, partial curve]
13 | Cn1ccnc1SCC(=O)c1ccc([N+](=O)[O-])cc1 | 8.91 µM [falling, partial curve, poor fit] | 7.94 µM [falling, partial curve]
14 | CN1C(=O)C2(C(C#N)=C(N)N(c3cc(Cl)cc(Cl)c3)C3=C2C(=O)CC(C)(C)C3)c2ccccc21 (stereo not drawn) | 7.08 µM [rising, partial curve] | 5.01 µM [rising, full curve]
15 | C/C(=N\Nc1nc(Nc2ccccc2)nc(N2CCOCC2)n1)c1cccs1 | 1.41 µM [falling, full curve, poor fit] | –
16 | CCn1ncc(C2=NOC(C(=O)Nc3ccc(C)cc3)C2)c1C (stereo not drawn) | 12.6 µM [rising, single point] | 12.6 µM [rising, partial curve]
17 | Cc1ccc2c(CC(=O)OCC(=O)Nc3ccc(Cl)cn3)coc2c1 | – | 5.62 µM [rising, single point]
18 | COc1ccc(N(C)S(=O)(=O)c2cccc(C(=O)Nc3ccc(-n4cnnn4)cc3)c2)cc1 | 25.1 µM [rising, single point] | 35.5 µM [rising, single point]
19 | COc1ccc2[nH]cc(CCNc3cc(-c4cccc(C#N)c4)ncn3)c2c1 | 35.5 µM [falling, single point] | –

Quoted from above: entries 14–15
Row | SMILES | AC50 [1] | AC50 [2]
14 | CN1C(=O)C2(C(C#N)=C(N)N(c3cc(Cl)cc(Cl)c3)C3=C2C(=O)CC(C)(C)C3)c2ccccc21 (stereo not drawn) | 7.08 µM [rising, partial curve] | 5.01 µM [rising, full curve]
15 | C/C(=N\Nc1nc(Nc2ccccc2)nc(N2CCOCC2)n1)c1cccs1 | 1.41 µM [falling, full curve, poor fit] | –

Remaining list, next part

Row | SMILES | AC50 [1] | AC50 [2]
20 | CCCCOC(=O)Nc1cc(OC)c(Cl)cc1OC | – | 0.447 µM [rising, full curve, poor fit]
21 | c1ccc(C2=Nc3ccccc3OC2)cc1 | – | 35.5 µM [rising, single point]
22 | CN(C)/C=N/c1ncn(-c2ncc(C(F)(F)F)cc2Cl)n1 | 0.0251 µM [rising, full curve, poor fit] | –
23 | Nc1nc(CN2CCN(c3ccccc3F)CC2)nc(Nc2ccccc2)n1 | 35.5 µM [rising, single point] | –
24 | O=C(Nc1cccc(Oc2c(F)c(F)c(F)c(F)c2F)c1)N1C[C@@H]2C[C@@H](C1)c1cccc(=O)n1C2 | 3.98 µM [rising, partial curve, poor fit] | –
25 | COC(=O)c1ccccc1NC(=O)n1cc(C)cn1 | – | 0.501 µM [falling, full curve, poor fit]
26 | Cc1cc2c(cc1S(=O)(=O)Nc1cc(C(F)(F)F)cc(C(F)(F)F)c1)OCC(=O)N2 | 0.0398 µM [falling, full curve, poor fit] | –
27 | Cc1cccc(NC(=S)NCCc2ccccc2)n1 | – | 20 µM [rising, single point]
28 | O=C(NCCCOc1cccc(CN2CCCCC2)c1)c1ccc(Cl)c(Cl)c1 | 10 µM [rising, partial curve] | –
29 | COc1ccc(C)cc1N(C(=O)COc1ccccc1)c1nc2ccccc2s1 | – | 8.91 µM [rising, partial curve]
30 | Cc1ccc2nc(NNC(=O)c3ccc4c(c3)OCCO4)sc2c1 | 35.5 µM [rising, single point] | 35.5 µM [rising, single point]
31 | CC(=O)O[C@H]1C(=O)[C@@]2(C)[C@H]([C@H](OC(=O)c3ccccc3)[C@]3(O)C[C@H](OC(=O)[C@H](O)[C@@H](NC(=O)c4ccccc4)c4ccccc4)C(C)=C1C3(C)C)[C@]1(OC(C)=O)CO[C@@H]1C[C@@H]2O | 35.5 µM [falling, single point] | 0.224 µM [rising, full curve]
32 | COc1ccccc1N1CCN(C(c2cccs2)C(C)NC(=O)c2cccnc2)CC1 (stereo not drawn) | – | 3.98 µM [falling, partial curve, poor fit]
33 | O=C(Nc1cccc(C(F)(F)F)c1)C1CCCN(c2ncccn2)C1 (stereo not drawn) | 14.1 µM [rising, partial curve] | 17.8 µM [rising, single point]
34 | OCCN(CCO)c1ncnc2c1sc1nc(N3CCOCC3)c3c(c12)CCCC3 | – | 31.6 µM [rising, single point]
35 | COc1ccc2nc(C)[nH]c(=O)c2c1 | – | 0.794 µM [falling, full curve, poor fit]
36 | CC(=O)Nc1ccc(S(=O)(=O)N(C)CC(=O)OCC(=O)c2cc(C)n(-c3ccc4c(c3)OCO4)c2C)cc1 | 35.5 µM [falling, single point] | –
37 | COc1cccc(OC)c1C(=O)Nc1cc(C)nn1-c1nc2ccccc2[nH]1 | 12.6 µM [rising, single point] | 3.98 µM [rising, single point]
38 | O=C(OCn1ncc(Br)c(Br)c1=O)c1c(F)cccc1F | – | 35.5 µM [rising, single point]

Row | SMILES | AC50 [1] | AC50 [2]
39 | COc1cc(OC)c(N(C)C(=O)Nc2cn(CC(C)C)c(=O)c3ccccc23)cc1Cl | – | 0.891 µM [falling, full curve, poor fit]
40 | CN(C)S(=O)(=O)c1ccc(C(=O)NC(=O)CSc2ccccc2)cc1 | – | 0.126 µM [falling, full curve, poor fit]
41 | CCCc1nn2c(=O)cc(COC(=O)CNC(=O)COc3ccc(C)cc3)nc2s1 | – | 0.01 µM [falling, full curve, poor fit]
42 | O=S(=O)(NCC1CCCO1)c1ccc(S(=O)(=O)N2CCCC2)cc1 (stereo not drawn) | – | 0.112 µM [falling, full curve, poor fit]
43 | CC(C)C(=O)NC(c1ccco1)c1c(O)ccc2ccccc12 (stereo not drawn) | – | 25.1 µM [rising, single point]
44 | COc1ccc(NC(=O)/C=C/c2ccc(F)cc2)cn1 | – | 14.1 µM [rising, partial curve]
45 | CSc1nc2ccccc2n1CC(=O)Nc1c(C)cccc1C | – | 22.4 µM [rising, partial curve]
46 | Cc1ccc(-c2nc(C)c(CCNC(=O)c3ccccc3Br)s2)cc1 | 14.1 µM [falling, partial curve, poor fit] | 35.5 µM [falling, single point]
47 | CCN1CCN(C(=S)Nc2ccc(Cl)c(Cl)c2)CC1 | 3.16 µM [rising, partial curve] | 11.2 µM [rising, partial curve]
48 | O=CNCC(=O)NC1CCCCCC1 | – | 5.62 µM [falling, partial curve]
49 | CCN(CC)S(=O)(=O)c1cc(-c2nnc(-c3ccc(Br)cc3)o2)ccc1Br | – | 15.8 µM [rising, single point]
50 | CCOC(=O)C1(Cc2ccc(O)cc2)NC(c2ccccc2F)C2C(=O)N(C)C(=O)C21 (stereo not drawn) | – | 25.1 µM [rising, single point]
51 | Cc1ccc(Nc2ccc(C(N)=O)cc2[N+](=O)[O-])cc1C | – | 17.8 µM [rising, single point]
52 | O=c1cc(N2CCN(c3cccc(Cl)c3)CC2)[nH]c(=O)n1C1CCCCC1 | – | 5.01 µM [falling, full curve, poor fit]
53 | COc1cccc(Cn2c(=O)c(-c3ccccc3)nc3cncnc32)c1 | 11.2 µM [falling, partial curve] | 17.8 µM [falling, single point]
54 | O=C(N/N=C/c1c(O)n(Cc2ccccc2)c(=O)c2ccccc12)c1cccnc1 | – | 35.5 µM [rising, single point]
55 | Cc1ccccc1-c1ccc(Nc2ccc(N3CCOCC3)cc2)nn1 | 15.8 µM [rising, partial curve, poor fit] | 31.6 µM [rising, single point]
56 | O=C(CNC(=O)c1ccccc1Cl)N/N=C/c1ccc([N+](=O)[O-])s1 | – | 14.1 µM [rising, partial curve]
57 | CC(C)(C)NS(=O)(=O)c1ccc(NC(=O)C(Sc2ccccc2)c2ccccc2)cc1 (stereo not drawn) | 22.4 µM [falling, single point] | 35.5 µM [falling, single point]
